Data taken from ChEMBL document CHEMBL3988442, “University of Dundee, Small-Polar-MMV Screening Library” (2021).

Mtb growth Cornell: 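Whole-cell assay for inhibitors of Mycobacterium tuberculosis growth, labelled Cornell in the record; the read-out is not stated. The concentration is filed as 10 mM, unlikely as a test dose, so the dose is not known. The record gives no direction; compounds strong in two other growth screens of this library score well above the rest, so higher reads as stronger inhibition. About 53,000 compounds were tested under these conditions; 1.7% (about 900) showed 50% or more at least once.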
Mtb heat-shock: 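Assay on Mycobacterium tuberculosis, filed only as a heat shock assay from Cornell; the read-out is not stated. The concentration is filed as 10 mM, unlikely as a test dose, so the dose is not known. Higher reads as stronger inhibition (inferred: compounds with an IC50 in retests scored well above the rest). About 69,000 compounds were tested under these conditions; 1.4% (about 930) showed 50% or more at least once.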

The filed quantity is “Percent Effect” (%).
The record does not define 0% and 100%; most values in the screen are far below 50% and negative numbers occur (in some assays of this library far below -100).
This is an unselected part of the compounds tested.
A dash means the value is not listed here; it may have been measured.

| SMILES | Mtb growth Cornell | Mtb heat-shock |
|---|---|---|
| `CN(Cc1cn2c(n1)CN(Cc1ccc(F)cc1)CC2)Cc1ccco1.O=C(O)C(F)(F)F.O=C(O)C(F)(F)F` | 34.39% | -5.638% |
| `O=C(NC[C@H]1OC[C@@H](NC2CCC2)[C@@H]1O)Nc1ccccc1` | -25.8% | -36.05% |
| `CC(=O)c1cc(C(=O)N2Cc3ccccc3OC3(CCOCC3)C2)cs1` | -15.31% | 7.453% |
| `COCc1nc(CNc2cccc(-c3ncon3)c2)cs1` | -0.7134% | -10.21% |
| `COc1cc(NC(=O)N2CCCC2c2ccco2)cc(OC)c1` (configuration not stated) | -5.679% | 26.86% |
| `COc1ccccc1C1(NCc2c(C)nc3c(C)cccn23)CCCC1.Cl` | -17.64% | -23.5% |
| `[H][C@@]12C[C@@H](OC)C[C@]1([H])CN(C(=O)c1cc3ccc(F)cc3[nH]1)C2` | 33.71% | 35.64% |
| `O=C(C1CCCN(C2CCOCC2)C1)N1Cc2ccccc2C1` (configuration not stated) | -31.07% | -3.074% |
| `Cc1cc(C(=O)N2C[C@H](c3ccccc3)[C@@H](N)C2)c2ccc(F)cc2n1` | -25.29% | 6.572% |
| `Cc1ccccc1-c1cc(NC(=O)NC2CC2)n(CCO)n1` | 16.91% | 9.859% |
| `CCCN1CC2(CCN(C)CC2)CC1C(=O)NCCn1nc(C)nc1C` (configuration not stated) | -4.831% | -14.43% |
| `O=C(CCn1cccn1)N1CCC(c2nnc(-c3ccsc3)o2)CC1` | 37.11% | 3.891% |
| `CC(C)(C)n1cc(C(=O)NCCCn2ccnc2)c2cccnc21` | - | -4.729% |
| `COc1cccc(-c2n[nH]cc2-c2nc(CN3CCCC3)no2)c1` | 6.78% | -7.823% |
| `Cc1ccsc1CN(C)C(=O)c1cc2c([nH]c1=O)CCCC2=O` | - | 14.47% |
| `Cc1cc(-c2cnc(NC3CC3)nc2-c2ccoc2)on1` | -15.23% | -16.77% |
| `COC(=O)CC(c1ccccc1)c1oc(C)cc(=O)c1O` (configuration not stated) | 11.63% | 4.279% |
| `CCS(=O)(=O)N1Cc2nccn2CC(Cn2nc(C)nc2C)C1` (configuration not stated) | -24.05% | 3.657% |
| `CCC(C)NC(=O)c1nn(C)c(NC(=O)c2ccccc2OC)c1F` (configuration not stated) | 15.62% | -3.585% |
| `Cn1nc(C2CNCCO2)cc1CCOc1ccc(C(F)(F)F)cc1` (configuration not stated) | 28.27% | 11.53% |
| `CC(C)c1nn(C)c(N2CCOCC2)c1CNCCS(C)(=O)=O` | -23.75% | 5.87% |
| `CC(=O)NCCc1nc(C(C)C)nn1-c1ccncc1C` | 0.8494% | 10.12% |
| `O=C(O)C(F)(F)F.[H][C@]12CCN(c3ccc(C)nn3)C[C@@]1([H])CN(Cc1cccc(C)n1)C2` | -29.96% | -19.66% |
| `Cn1nc(-c2ccccc2NC(=O)c2cncc(Br)c2)ccc1=O` | -44.97% | -17.33% |
| `O=C(O)C(F)(F)F.[H][C@@]12CN(Cc3cc[nH]n3)C[C@]1([H])OCCN2c1cnccn1` | -4.539% | -14.37% |
| `Cc1cc(CNCC2(O)CCCN(CCCc3ccccc3)C2=O)n[nH]1` (configuration not stated) | - | -1.369% |
| `O=C(NCCN1CCOCC1)NCC(O)c1cccc(F)c1` (configuration not stated) | 4.399% | -3.784% |
| `COc1cc(C)nc(N2CCN(C(=O)CN(C)C3CC3)CC2)n1` | 11.58% | 18.29% |
| `CSC(CNS(N)(=O)=O)c1cccc(Cl)c1` (configuration not stated) | 2.546% | -13.62% |
| `O=C(NCCn1cccc1)C1CCCOC1` (configuration not stated) | 12.21% | 3.6% |
| `Cc1ccc(NC(=O)Cn2ncc(SCC(N)=O)c(Cl)c2=O)cc1` | 16.16% | 15.24% |
| `N#Cc1ccc(F)c(CN(CC(=O)N2CCCC2)CC2CCCO2)c1` (configuration not stated) | 41.8% | 6.259% |
| `Fc1ccc(OCCNCCn2cccn2)cc1` | 3.511% | -16.06% |
| `CNc1ncccc1C(=O)N1CCCC2(C1)C(=O)N(C)c1ccccc12` (configuration not stated) | 17.14% | 18.22% |
| `Cc1ncc(CN2CCCN(Cc3noc(C4CC4)n3)CC2)s1` | - | 6.148% |
| `O=C(N1CCCC1)N1CCn2c(Cn3cccn3)cnc2C1` | -4.702% | -7.126% |
| `CN1N=C(C(=O)Nc2cc(F)ccc2OCC2CCCO2)CCC1=O` (configuration not stated) | -4.892% | -0.9389% |
| `CC(C)(C)C(C#N)NC(=O)c1ccc(Oc2cccnc2)cc1` (configuration not stated) | - | -13.36% |
| `CC(=O)N1CCCN(C(=O)NCc2ccc(Cl)s2)CC1` | 4.795% | -7.537% |
| `CN(C)S(=O)(=O)N1CC(c2nc(N)ncc2-c2ccc(F)cc2)C1` | 29.28% | 2.396% |
| `O=C(NCCN1CCOCC1)c1ccc(-n2ccc3ccccc32)s1` | 20.15% | 24.95% |
| `CS(=O)(=O)NCc1cncc2c1CCN(C(=O)c1cccnc1)C2.Cl.Cl` | 7.658% | -13.86% |
| `[H][C@@]12COCC[C@]1([H])C[C@H](N(CC(=O)NC)S(=O)(=O)c1ccccc1)C2` | 5.308% | 7.233% |
| `CCc1ccc(CNC(=O)N2CCN(Cc3cc(C)no3)CC2)s1` | 3.069% | -15.25% |
| `CN(C)C(=O)c1cccc(NC(=O)N(CCO)Cc2ccsc2)c1` | -11.32% | 4.804% |
| `CCCN1CCC(N2CCC(Cn3cc(C4CC4)nn3)CC2)CC1` | - | -187.5% |
| `Cc1ccc(C(=O)Nc2nnc(C3CC3)s2)c(-n2cnnn2)c1C` | -10.51% | 40.83% |
| `CNc1cc2c(nn1)CCN(C(=O)c1ccc(-n3cccn3)nc1)C2` | 1.407% | -2.221% |
| `O=C(C1CC1)N1CCCC(C2=Nc3ccccc3S(=O)(=O)N2)C1` (configuration not stated) | 29.99% | -1.941% |
| `COCC(=O)N1CCC2(CC1)CN(c1ccsc1)C(=O)CO2` | 12.01% | 0.8045% |
| `CN(Cc1ccsc1)C(=O)Nc1ccc(N(C)C)nc1` | - | -12.53% |
| `COc1ccc2c(c1)OCC(Cc1ccc(N(C)C)nc1)C2` (configuration not stated) | 21.72% | -12.3% |
| `Br.CCOc1ccc(N(CC(=O)c2ccccc2)C2=NCCCCC2)cc1` | 104.2% | 104.1% |
| `CN(C)CCN1CCCC12CCN(C(=O)c1ccoc1)CC2.O=C(O)C(F)(F)F.O=C(O)C(F)(F)F` | 3.62% | -7.317% |

For reference, 6 entries once more:

SMILES	Mtb growth Cornell	Mtb heat-shock
O=C(NCCN1CCOCC1)NCC(O)c1cccc(F)c1 (configuration not stated)	4.399%	-3.784%
COCc1nc(CNc2cccc(-c3ncon3)c2)cs1	-0.7134%	-10.21%
O=C(C1CCCN(C2CCOCC2)C1)N1Cc2ccccc2C1 (configuration not stated)	-31.07%	-3.074%
CNc1ncccc1C(=O)N1CCCC2(C1)C(=O)N(C)c1ccccc12 (configuration not stated)	17.14%	18.22%
CN(C)C(=O)c1cccc(NC(=O)N(CCO)Cc2ccsc2)c1	-11.32%	4.804%
CC(C)(C)C(C#N)NC(=O)c1ccc(Oc2cccnc2)cc1 (configuration not stated)	-	-13.36%